Measured values as given in the supplement of paper PMC6078165.
The reference is the same well before dosing, and untreated signal decays as well.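 Labels refer to human fibroblasts, largely primary: uterine (C12385, HUF), lung (H6013), bone (Hs27A), adrenal (HADF), skin (WS1), plus mammary HMF and breast cancer-associated Hs343T. Cancer lines are basal-like or mesenchymal-like triple-negative breast cancer. The paper counts as hits responses shifting over 3x the replicate standard deviation. The tissue of the other fibroblasts is not given here.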

System: HCC1143
Assay: relative JC-1 red fluorescence (viability) vs pre-drug, coculture with fibroblast (fraction); higher = more viable cancer cells
Method: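 JC-1 labelled TNBC cells cocultured 1:1 (1,500 cells each) with CellTrace Violet stained primary or stromal fibroblasts in 384-well plates in FluoroBrite medium, treated with one of 42 anticancer drugs at 0.1, 1, 10 or 100 uM. JC-1 red fluorescence (mitochondrial integrity in cancer cells only) was read by plate reader every 8 h for 72 h. Values are normalised to each well's pre-drug value. The stock of one drug was tenfold lower, so its dose labels may be too high.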

CC(=O)c1c(C)c2cnc(Nc3ccc(N4CCNCC4)cn3)nc2n(C2CCCC2)c1=O [Palbociclib]
relative JC-1 red fluorescence
Conditions	8 h	16 h	24 h	32 h	40 h	48 h	56 h	64 h	72 h
0.1 µM, coculture fibroblast: C12385	0.847	0.763	0.705	0.644	0.577	0.541	0.5	0.454	0.431
0.1 µM, coculture fibroblast: H6013	0.815	0.718	0.719	0.724	0.668	0.664	0.624	0.606	0.576
0.1 µM, coculture fibroblast: H6019	0.8088	0.742	0.7	0.654	0.63	0.599	0.549	0.51	0.481
0.1 µM, coculture fibroblast: H6076	0.796	0.832	0.761	0.664	0.638	0.605	0.558	0.523	0.515
0.1 µM, coculture fibroblast: H6231	0.827	0.875	0.7782	0.61	0.6628	0.6164	0.571	0.531	0.497
0.1 µM, coculture fibroblast: HADF	0.7694	0.709	0.696	0.717	0.637	0.637	0.607	0.586	0.568
0.1 µM, coculture fibroblast: HCFa	0.785	0.671	0.651	0.642	0.553	0.523	0.482	0.453	0.429
0.1 µM, coculture fibroblast: HCPF	0.8037	0.8359	0.7502	0.6247	0.6455	0.6066	0.5754	0.5375	0.52
0.1 µM, coculture fibroblast: HHSteC	0.8545	0.745	0.7173	0.681	0.613	0.589	0.546	0.511	0.4544
0.1 µM, coculture fibroblast: HMF	0.795	0.849	0.778	0.634	0.6751	0.6314	0.5811	0.5414	0.498
0.1 µM, coculture fibroblast: HPFa	0.9334	0.8263	0.7783	0.686	0.607	0.561	0.503	0.451	0.402
0.1 µM, coculture fibroblast: HUF	0.873	0.766	0.695	0.622	0.574	0.542	0.491	0.456	0.426
0.1 µM, coculture fibroblast: Hs5	0.891	0.901	0.865	0.848	0.805	0.787	0.767	0.742	0.745
0.1 µM, coculture fibroblast: Hs27A	0.732	0.66	0.672	0.705	0.603	0.615	0.566	0.538	0.497
0.1 µM, coculture fibroblast: Hs343T	0.7973	0.879	0.78	0.635	0.664	0.614	0.549	0.519	0.475
0.1 µM, coculture fibroblast: WS1	0.8325	0.718	0.675	0.6	0.542	0.512	0.467	0.434	0.409
1 µM, coculture fibroblast: C12385	0.8516	0.7577	0.7201	0.672	0.412	0.386	0.361	0.335	0.323
1 µM, coculture fibroblast: H6013	0.788	0.732	0.709	0.713	0.656	0.645	0.614	0.599	0.586
1 µM, coculture fibroblast: H6019	0.8524	0.773	0.743	0.681	0.65	0.631	0.589	0.544	0.52
1 µM, coculture fibroblast: H6076	0.8193	0.793	0.771	0.746	0.71	0.704	0.689	0.6744	0.689
1 µM, coculture fibroblast: H6231	0.83	0.914	0.804	0.61	0.687	0.63414	0.591	0.5532	0.5147
1 µM, coculture fibroblast: HADF	0.79	0.724	0.716	0.733	0.64	0.623	0.603	0.571	0.592
1 µM, coculture fibroblast: HCFa	0.822	0.749	0.708	0.696	0.621	0.593	0.55	0.519	0.497
1 µM, coculture fibroblast: HCPF	0.819	0.842	0.803	0.663	0.711	0.673	0.623	0.592	0.571
1 µM, coculture fibroblast: HHSteC	0.885	0.8168	0.80031	0.778	0.7139	0.702	0.6576	0.631	0.586
1 µM, coculture fibroblast: HMF	0.839	0.8675	0.823	0.728	0.761	0.744	0.718	0.702	0.686
1 µM, coculture fibroblast: HPFa	0.9287	0.849	0.814	0.732	0.675	0.646	0.589	0.547	0.507
1 µM, coculture fibroblast: HUF	0.901	0.802	0.752	0.682	0.64	0.609	0.562	0.53	0.508
1 µM, coculture fibroblast: Hs5	0.8703	0.928	0.891	0.829	0.796	0.763	0.734	0.711	0.684
1 µM, coculture fibroblast: Hs27A	0.756	0.694	0.661	0.688	0.566	0.553	0.509	0.481	0.489
1 µM, coculture fibroblast: Hs343T	0.819	0.8417	0.7897	0.6852	0.679	0.643	0.59	0.561	0.5272
1 µM, coculture fibroblast: WS1	0.8281	0.7477	0.732	0.672	0.6376	0.6046	0.5679	0.537	0.52
10 µM, coculture fibroblast: C12385	0.8599	0.8135	0.7884	0.757	0.709	0.6705	0.64055	0.6038	0.582
10 µM, coculture fibroblast: H6013	0.875	0.866	0.892	0.809	0.905	0.894	0.891	0.894	0.842
10 µM, coculture fibroblast: H6019	0.89	0.851	0.846	0.799	0.778	0.757	0.736	0.709	0.681
10 µM, coculture fibroblast: H6076	0.863	0.89	0.879	0.94	0.908	0.964	0.941	0.907	0.914
10 µM, coculture fibroblast: H6231	0.812	0.883	0.836	0.639	0.77	0.731	0.706	0.666	0.638
10 µM, coculture fibroblast: HADF	0.731	0.696	0.685	0.729	0.601	0.574	0.556	0.537	0.658
10 µM, coculture fibroblast: HCFa	0.766	0.7	0.684	0.72	0.62	0.58	0.572	0.547	0.616
10 µM, coculture fibroblast: HCPF	0.8069	0.803	0.903	0.6677	0.839	0.787	0.761	0.72	0.691
10 µM, coculture fibroblast: HHSteC	0.831	0.791	0.781	0.772	0.698	0.667	0.654	0.636	0.651
10 µM, coculture fibroblast: HMF	0.837	0.805	0.924	0.747	0.865	0.833	0.804	0.772	0.74
10 µM, coculture fibroblast: HPFa	0.949	0.92	0.921	0.852	0.828	0.811	0.777	0.739	0.725
10 µM, coculture fibroblast: HUF	0.864	0.812	0.824	0.732	0.644	0.674	0.606	0.651	0.597
10 µM, coculture fibroblast: Hs5	0.8466	0.973	0.956	0.893	0.879	0.858	0.838	0.816	0.813
10 µM, coculture fibroblast: Hs27A	0.747	0.72	0.707	0.797	0.638	0.603	0.587	0.567	0.724
10 µM, coculture fibroblast: Hs343T	0.863	0.8217	0.953	0.883	0.906	0.847	0.782	0.808	0.841
10 µM, coculture fibroblast: WS1	0.851	0.821	0.799	0.775	0.756	0.731	0.701	0.678	0.659
100 µM, coculture fibroblast: C12385	0.30376	0.187	0.169	0.133	0.0904	0.077	0.0639	0.0481	0.0371
100 µM, coculture fibroblast: H6013	0.281	0.246	0.219	0.188	0.167	0.16	0.133	0.117	0.0662
100 µM, coculture fibroblast: H6019	0.246	0.124	0.0999	0.0648	0.0406	0.0335	0.0181	0.0284	0.0174
100 µM, coculture fibroblast: H6076	0.837	0.9196	0.897	0.81	0.802	0.794	0.75	0.711	0.684
100 µM, coculture fibroblast: H6231	0.836	0.84	0.741	0.626	0.596	0.572	0.524	0.465	0.44
100 µM, coculture fibroblast: HADF	0.255	0.161	0.127	0.0979	0.0752	0.0703	0.0512	0.0462	0.0172
100 µM, coculture fibroblast: HCFa	0.391	0.16	0.123	0.0963	0.0737	0.0627	0.0396	0.025	0.0203
100 µM, coculture fibroblast: HCPF	0.8601	0.969	0.879	0.683	0.7389	0.686	0.639	0.6	0.571
100 µM, coculture fibroblast: HHSteC	0.349	0.246	0.212	0.175	0.156	0.145	0.119	0.102	0.0533
100 µM, coculture fibroblast: HMF	0.829	0.9666	0.866	0.721	0.722	0.69	0.638	0.578	0.538
100 µM, coculture fibroblast: HPFa	0.48	0.303	0.286	0.248	0.219	0.216	0.192	0.185	0.167
100 µM, coculture fibroblast: HUF	0.498	0.31	0.241	0.202	0.184	0.18	0.157	0.149	0.14
100 µM, coculture fibroblast: Hs5	0.813	0.9038	0.8202	0.729	0.6558	0.583	0.509	0.455	0.4
100 µM, coculture fibroblast: Hs27A	0.43	0.339	0.255	0.227	0.189	0.195	0.161	0.143	0.0818
100 µM, coculture fibroblast: Hs343T	0.83876	0.9575	0.84503	0.716	0.7237	0.696	0.63	0.567	0.501
100 µM, coculture fibroblast: WS1	0.283	0.182	0.157	0.123	0.0982	0.0855	0.0677	0.0528	0.0402
